Source: PubChem BioAssay AID2685 (National Center for Advancing Translational Sciences (NCATS), 2010)
The other results are listed elsewhere or left out. The main result of the screen is listed elsewhere. These columns were measured beside it and carry no call. Most of these compounds were active or inconclusive in the main read-out, so they are no random draw. The note in brackets gives the kind of curve behind each potency; many fits are weak.

Assay: qHTS Assay for Lipid Storage Modulators in Drosophila S3 Cells;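 as to cell number change: cells counted by Cell Tracker Red CMTPX staining in the red channel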
Conditions: BODIPY lipid droplet fluorescence, 18-24 h; for cell number change: measured here: cell count max response, cells fed with added oleic acid
Procedure, shortened: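 Laser-scanning cytometry quantifies lipid droplet accumulation (500–530 nm total intensity; droplet/cell object ratio) in oleic acid-fed (400 uM added) Drosophila S3 cells treated with a concentration series. 20 uM Triacsin C defined 100% inhibition.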

[1] = measured here: lipid fluorescence (Fed channel) AC50, cells fed with added oleic acid
[2] = measured here: cell number channel AC50, cells fed with added oleic acid

Structure (SMILES) | cell number change [%] | AC50 [1] | AC50 [2]
COc1ccc(C)cc1NC(=O)CSc1ccc(-c2cccnc2)nn1 | -1.01 |  | 
CC(C)[C@H](NC(=O)c1ccccc1)C(=O)OCC(=O)N1CCc2ccccc2C1 | -3.96 | 1.16 µM [rising, single point] | 
Cc1ccc(C(=O)N(C)CCOc2ccccc2)cc1S(=O)(=O)N1CCCCC1 | -9.47 |  | 
Cc1onc(-c2c(F)cccc2Cl)c1C(=O)N1CCCc2ccccc21 | 4.02 | 0.731 µM [falling, full curve, poor fit] | 
Cc1nc(N2CCOCC2)nc(N2CCCCC2)c1[N+](=O)[O-] | 9.45 | 20.6 µM [rising, partial curve] | 
O=C(CN1C(=O)/C(=C/c2ccccc2Cl)SC1=S)NC1C=CS(=O)(=O)C1 (configuration not stated) | 2.97 | 18.4 µM [falling, partial curve] | 
COCc1cc(C)nc(SCC(=O)Nc2cccc(C)c2C)c1C#N |  | 0.058 µM [rising, full curve, poor fit] | 0.92 µM [rising, partial curve]
Cc1ccc(C(=O)OCC(=O)N2C(C)CCCC2C)cc1S(=O)(=O)N1CCCCC1 (configuration not stated) | -41.1 | 29.1 µM [falling, single point] | 0.92 µM [falling, full curve]
Cc1ccc(OCC(=O)N/N=C/c2cccnc2)cc1 | 22.7 |  | 
Fc1ccc(CNCC2CCCO2)cc1 (configuration not stated) | 17.5 | 0.651 µM [rising, single point] | 
Nc1nc(NCCCN2CCOCC2)nc(NCc2ccccc2)c1[N+](=O)[O-] | 10.2 |  | 
O=C(NCc1ccco1)c1cccc(Br)c1 | 7.66 | 0.58 µM [rising, single point] | 
CCC(=O)Nc1c(C)n[nH]c1C | 1.65 | 29.1 µM [falling, single point] | 
Cc1ccc(-c2csc(N3CCN(CCCn4c(C(F)(F)F)nc5ccccc54)CC3)n2)cc1 | -7.78 | 6.51 µM [falling, single point] | 
O=C(CSc1nnc(CCCO)n1-c1ccccc1)Nc1nccs1 | 32.7 | 6.51 µM [rising, single point] | 
CCN(NC(=O)C(O)(c1ccc(F)cc1)c1ccc(F)cc1)C(=O)c1ccccc1 | -8.96 | 0.00517 µM [falling, full curve, poor fit] | 
COC(=O)c1ccc(C2C(Oc3ccccc3)C(=O)N2CCc2ccc(OC)c(OC)c2)cc1 (configuration not stated) | -4.57 |  | 
N#Cc1cccc(-c2cn(S(=O)(=O)c3ccc(Cl)cc3)nc2N)c1 | -1.15 | 0.231 µM [rising, full curve, poor fit] | 

In a second layout: results already given.
Structure (SMILES)	cell number change [%]	AC50 [1]	AC50 [2]
Cc1ccc(C(=O)OCC(=O)N2C(C)CCCC2C)cc1S(=O)(=O)N1CCCCC1 (configuration not stated)	-41.1	29.1 µM [falling, single point]	0.92 µM [falling, full curve]
Cc1ccc(OCC(=O)N/N=C/c2cccnc2)cc1	22.7		
